The record followed here is patent US20230069722A1 (priority 2020, published 2023).

This data set is described as follows: general procedure: solution-phase peptide synthesis; pentafluorophenol (PFP) / DIC, DIPEA.
Setting [1] is: coupling step, from 3Fa, TFA salt.

Read-outs that look alike come from different tables or passages of the source.

In the case of “(4S)-5-(4-amino-3-fluorophenyl)-4-({2-[(1R,3R)-1-{[(2-aminoethyl)carbamoyl]oxy}-3-[(2S,3S)—N-hexyl-3-methyl-2-{[(2R)-1-methylpiperidin-2-yl]formamido}pentanamido]-4-methylpentyl]-1,3-thiazol-4-yl}formamido)-2,2-dimethylpentanoic Acid”, under “coupling step”, the “final HPLC purity” value is greater than 99%. This substance also gave a step yield (coupling step, from 3Eb) of 19%.
Regarding “(4S)-4-({2-[(1R,3R)-1-(acetyloxy)-3-[(2S,3S)—N-hexyl-3-methyl-2-{[(2R)-2-methylpyrrolidin-2-yl]formamido}pentanamido]-4-methylpentyl]-1,3-thiazol-4-yl}formamido)-5-(4-hydroxyphenyl)-2,2-dimethylpentanoic Acid”, the “final HPLC purity” value is on record as greater than 99%. Besides, the step yield (late stage modification step) worked out at 50%.
For the substance “(1R,3R)-1-(4-{[(2S)-4-{[4-(aminomethyl)benzenesulfonyl]carbamoyl}-1-(4-fluorophenyl)-4,4-dimethylbutan-2-yl]carbamoyl}-1,3-thiazol-2-yl)-3-[(2S,3S)—N-hexyl-3-methyl-2-{[(2R)-1-methylpiperidin-2-yl]formamido}pentanamido]-4-methylpentyl Acetate”, for the setting “late stage modification step”, the “purity (crude or final not stated)” value turned out to be 98%. The substance also came in with a step yield (late stage modification step, from P10) of 67% yield.
The substance “(1R,3R)-1-[4-({4-[(2S)-2-[(2S)-2-Amino-3-methylbutanamido]-5-(carbamoylamino)pentanamido]benzenesulfonyl}carbamoyl)-1,3-thiazol-2-yl]-3-[(2S,3S)—N-hexyl-3-methyl-2-{[(2R)-1-methylpiperidin-2-yl]formamido}pentanamido]-4-methylpentyl Acetate” gave a conjugation yield (conjugation step, from P43) of 27% yield from P43%.
“(4S)-4-({2-[(1R,3R)-1-(acetyloxy)-3-[(2S,3S)—N-hexyl-3-methyl-2-[(2R)-piperidin-2-ylformamido]pentanamido]-4-methylpentyl]-1,3-thiazol-4-yl}formamido)-5-[4-(2-aminoacetamido)-3-fluorophenyl]-2,2-dimethylpentanoic Acid”: the “final HPLC purity” value (coupling step) is 98%. In addition, the step yield (coupling step, from 3Fb, TFA salt) came to 20%.
For the substance DIBAC-PEG4-EvcPAB-Gly-P8, the “purity (crude or final not stated)” value was 99.9%. Moreover, the step yield (late stage modification step) was found to be 14% yield.
Regarding BCN-PEG4-Evc-P34, where the note is “conjugation step”, the conjugation yield is 22% yield and the “purity (crude or final not stated)” value is 99%.
Take “(4S)-4-({2-[(1R,3R)-1-(acetyloxy)-4-methyl-3-[(2S,3S)-3-methyl-2-{[(2R)-1-methylpiperidin-2-yl]formamido}-N-(pent-4-yn-1-yloxy)pentanamido]pentyl]-1,3-thiazol-4-yl}formamido)-5-[4-(2-aminoacetamido)phenyl]-2,2-dimethylpentanoic Acid”: the step yield (coupling step, in 3 steps from 3Ia, TFA salt) was 11% yield.
In the case of “(4S)-4-({2-[(1R,3R)-1-(acetyloxy)-3-[(2S,3S)—N-hexyl-3-methyl-2-{[(2R)-1-methylpiperidin-2-yl]formamido}pentanamido]-4-methylpentyl]-1,3-thiazol-4-yl}formamido)-5-(4-aminophenyl)-2,2-dimethylpentanoic Acid”, for the setting “coupling step”, the “final HPLC purity” value came out at 99%. This substance also displayed a step yield (coupling step, from 3Fa) of 50%.
As for “(4S)-4-({2-[(1R,3R)-1-(acetyloxy)-3-[(2S,3S)—N-hexyl-3-methyl-2-{[(2R)-1-methylpiperidin-2-yl]formamido}pentanamido]-4-methylpentyl]-1,3-thiazol-4-yl}formamido)-5-[4-(2-aminoacetamido)-3-fluorophenyl]-2,2-dimethylpentanoic Acid”, where the note is “coupling step”, the “final HPLC purity” value stood at 98%. In addition, the step yield under setting [1] came out at 39%.
Regarding “(4S)-5-(4-amino-3-fluorophenyl)-4-({2-[(1R,3R)-1-ethoxy-3-[(2S,3S)—N-hexyl-3-methyl-2-{[(2R)-1-methylpiperidin-2-yl]formamido}pentanamido]-4-methylpentyl]-1,3-thiazol-4-yl}formamido)-2,2-dimethylpentanoic Acid”, where the note is “coupling step”, the “final HPLC purity” value was greater than 99% and the step yield is recorded as 70%.
For the substance “(4S)-5-(4-aminophenyl)-4-({2-[(1R,3R)-1-acetamido-3-[(2S,3S)—N-hexyl-3-methyl-2-{[(2R)-1-methylpiperidin-2-yl]formamido}pentanamido]-4-methylpentyl]-1,3-thiazol-4-yl}formamido)-2,2-dimethylpentanoic Acid”, where the note is “coupling step”, the “final HPLC purity” value is listed as greater than 99%. Moreover, where the note is “coupling step, from compound 3C”, the step yield came out at 12%.
Take “(4S)-4-({2-[(1R,3R)-1-(acetyloxy)-4-methyl-3-[(2S,3S)-3-methyl-2-{[(2R)-2-methylpyrrolidin-2-yl]formamido}-N-(pent-4-yn-1-yloxy)pentanamido]pentyl]-1,3-thiazol-4-yl}formamido)-5-(4-amino-3-fluorophenyl)-2,2-dimethylpentanoic Acid”: the “final HPLC purity” value (coupling step) was 99%. The substance also yielded a step yield (coupling step, from 3Ib) of 42%.
Under “coupling step, from L1-1a”, “(4S)-4-Amino-5-{4-[(2S)-5-(carbamoylamino)-2-[(2S)-2-[(2S)-4-carboxy-2-{[(9H-fluoren-9-ylmethoxy)carbonyl]amino}butanamido]-3-methylbutanamido]pentanamido]phenyl}-2,2-dimethylpentanoic acid” registered a step yield of 48% yield.
Regarding “(4S)-4-({2-[(1R,3R)-1-(acetyloxy)-3-[(2S,3S)—N-hexyl-3-methyl-2-{[(2R)-1-methylpiperidin-2-yl]formamido}pentanamido]-4-methylpentyl]-1,3-thiazol-4-yl}formamido)-5-{4-[(2-aminoethyl)amino]phenyl}-2,2-dimethylpentanoic Acid”, the “final HPLC purity” value (coupling step) is given as 96%. In addition, the step yield under setting [1] is 49%.
On to “(4S)-4-({2-[(1R,3R)-1-ethoxy-3-[(2S,3S)—N-hexyl-3-methyl-2-{[(2R)-1-methylpiperidin-2-yl]formamido}pentanamido]-4-methylpentyl]-1,3-thiazol-4-yl}formamido)-2,2-dimethyl-5-phenylpentanoic Acid”, for which the step yield (coupling step, from 3Ba) came out at 60%.
“(4S)-5-[4-(2-aminoacetamido)phenyl]-4-({2-[(1R,3R)-1-ethoxy-3-[(2S,3S)—N-hexyl-3-methyl-2-[(2R)-piperidin-2-ylformamido]pentanamido]-4-methylpentyl]-1,3-thiazol-4-yl}formamido)-2,2-dimethylpentanoic Acid”: the “final HPLC purity” value (coupling step) worked out at 99%. In addition, where the note is “coupling step, from 3Bb, dual-TFA salt”, the step yield amounted to 18%.
For “(4S)-5-[4-(2-aminoacetamido)-3-fluorophenyl]-4-({2-[(1R,3R)-3-[(2S,3S)—N-hexyl-3-methyl-2-{[(2R)-1-methylpiperidin-2-yl]formamido}pentanamido]-1-hydroxy-4-methylpentyl]-1,3-thiazol-4-yl}formamido)-2,2-dimethylpentanoic Acid”, the “final HPLC purity” value (coupling step) is recorded as 95%. This substance also registered a step yield (coupling step, from 3 Da) of 15%.
